Source: article PMC5675994
No constants are given. Whether binding was seen depends on the method and setting. In cells and extracts the contact can be indirect. A yes stands for co-enrichment or nearness to the bait. Other partners may have been found. For part of these data: Sequences can lack the tags named with a protein.

Chains of the proteins cited; added tags and fusions are not shown. Lines headed by an entry give the natural chain unless they say otherwise; changes in a name come on top.
UniProt Q07540: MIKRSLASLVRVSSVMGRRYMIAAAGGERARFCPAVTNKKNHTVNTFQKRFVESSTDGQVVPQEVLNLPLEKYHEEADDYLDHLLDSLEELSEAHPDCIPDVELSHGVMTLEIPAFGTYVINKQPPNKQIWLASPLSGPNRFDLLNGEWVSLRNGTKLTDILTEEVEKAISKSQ

T1: Nfs1-His6 (S. cerevisiae) (UniProt P25374)
T1 sequence: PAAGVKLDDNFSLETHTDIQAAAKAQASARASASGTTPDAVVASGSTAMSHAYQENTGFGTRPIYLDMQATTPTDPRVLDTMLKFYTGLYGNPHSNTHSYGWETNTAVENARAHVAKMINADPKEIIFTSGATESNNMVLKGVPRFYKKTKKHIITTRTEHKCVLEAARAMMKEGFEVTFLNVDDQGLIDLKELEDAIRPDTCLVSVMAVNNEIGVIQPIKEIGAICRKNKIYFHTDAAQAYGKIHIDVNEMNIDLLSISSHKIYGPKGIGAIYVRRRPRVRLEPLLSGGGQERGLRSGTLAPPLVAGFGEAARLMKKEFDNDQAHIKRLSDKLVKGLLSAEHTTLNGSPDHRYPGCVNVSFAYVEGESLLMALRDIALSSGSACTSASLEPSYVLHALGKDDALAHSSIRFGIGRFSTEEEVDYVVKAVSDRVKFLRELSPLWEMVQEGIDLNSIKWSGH


Columns and labels:
[1] = target: T1, Nfs1-His6 (S. cerevisiae); test: affinity purification with mass spectrometry; Nfs1-His6 held on Ni-NTA superflow agarose from sonicated, cleared lysate of isolated mitochondria of the Gal-Nfs1-His6 yeast strain; 50 mM TrisCl pH 7.5, 80 mM KCl, 10% glycerol, wash 40 mM imidazole, elution 400 mM imidazole; eluate analysed by LC-MS/MS
[2] = target: Yfh1-His6 (S. cerevisiae) (UniProt Q07540); test: affinity purification with mass spectrometry; Yfh1-His6 held on Ni-NTA superflow agarose from French-press lysate (108,000xg supernatant) of isolated mitochondria of the Yfh1-His6 yeast strain; 50 mM TrisCl pH 7.5, 80 mM KCl, 10% glycerol, wash 40 mM imidazole with 0.1% Triton X-100, elution 400 mM imidazole; eluate analysed by LC-MS/MS

| binding [1] | binding [2] | Binder |
| --- | --- | --- |
| binds |  | Lon protease homolog, mitochondrial (protein, UniProt P36775 99-1133) KDDSTSQKKDEDVKIVPDEKDTDNDVEPTRDDEIVNKDQEGEASKNSRSSASGGGQSSSSRSDSGDGSSKQKPPKDVPEVYPQMLALPIARRPLFPGFYKAVVISDERVMKAIKEMLDRQQPYIGAFMLKNSEEDTDVITDKNDVYDVGVLAQITSAFPSKDEKTGTETMTALLYPHRRIKIDELFPPNEEKEKSKEQAKDTDTETTVVEDANNPEDQESTSPATPKLEDIVVERIPDSELQHHKRVEATEEESEELDDIQEGEDINPTEFLKNYNVSLVNVLNLEDEPFDRKSPVINALTSEILKVFKEISQLNTMFREQIATFSASIQSATTNIFEEPARLADFAAAVSAGEEDELQDILSSLNIEHRLEKSLLVLKKELMNAELQNKISKDVETKIQKRQREYYLMEQLKGIKRELGIDDGRDKLIDTYKERIKSLKLPDSVQKIFDDEITKLSTLETSMSEFGVIRNYLDWLTSIPWGKHSKEQYSIPRAKKILDEDHYGMVDVKDRILEFIAVGKLLGKVDGKIICFVGPPGVGKTSIGKSIARALNRKFFRFSVGGMTDVAEIKGHRRTYIGALPGRVVQALKKCQTQNPLILIDEIDKIGHGGIHGDPSAALLEVLDPEQNNSFLDNYLDIPIDLSKVLFVCTANSLETIPRPLLDRMEVIELTGYVAEDKVKIAEQYLVPSAKKSAGLENSHVDMTEDAITALMKYYCRESGVRNLKKHIEKIYRKAALQVVKKLSIEDSPTSSADSKPKESVSSEEKAENNAKSSSEKTKDNNSEKTSDDIEALKTSEKINVSISQKNLKDYVGPPVYTTDRLYETTPPGVVMGLAWTNMGGCSLYVESVLEQPLHNCKHPTFERTGQLGDVMKESSRLAYSFAKMYLAQKFPENRFFEKASIHLHCPEGATPKDGPSAGVTMATSFLSLALNKSIDPTVAMTGELTLTGKVLRIGGLREKAVAAKRSGAKTIIFPKDNLNDWEELPDNVKEGLEPLAADWYNDIFQKLFKDVNTKEGNSVWKAEFEILDAKKEKD |
| binds |  | Mitochondrial acidic protein MAM33 (protein, UniProt P40513 48-266) QETQRVGDILQSELKIEKETLPESTSLDSFNDFLNKYKFSLVETPGKNEAEIVRRTESGETVHVFFDVAQIANLPYNNAMDENTEQNEDGINEDDFDALSDNFANVNVVISKESASEPAVSFELLMNLQEGSFYVDSATPYPSVDAALNQSAEAEITRELVYHGPPFSNLDEELQESLEAYLESRGVNEELASFISAYSEFKENNEYISWLEKMKKFFH |
| binds |  | 5-AMP-activated protein kinase subunit gamma (protein, UniProt P12904 1-322) MKPTQDSQEKVSIEQQLAVESIRKFLNSKTSYDVLPVSYRLIVLDTSLLVKKSLNVLLQNSIVSAPLWDSKTSRFAGLLTTTDFINVIQYYFSNPDKFELVDKLQLDGLKDIERALGVDQLDTASIHPSRPLFEACLKMLESRSGRIPLIDQDEETHREIVVSVLTQYRILKFVALNCRETHFLKIPIGDLNIITQDNMKSCQMTTPVIDVIQMLTQGRVSSVPIIDENGYLINVYEAYDVLGLIKGGIYNDLSLSVGEALMRRSDDFEGVYTCTKNDKLSTIMDNIRKARVHRFFVVDDVGRLVGVLTLSDILKYILLGSN |
| binds |  | Isocitrate dehydrogenase [NADP], mitochondrial (protein, UniProt P21954 17-428) FSKIKVKQPVVELDGDEMTRIIWDKIKKKLILPYLDVDLKYYDLSVESRDATSDKITQDAAEAIKKYGVGIKCATITPDEARVKEFNLHKMWKSPNGTIRNILGGTVFREPIVIPRIPRLVPRWEKPIIIGRHAHGDQYKATDTLIPGPGSLELVYKPSDPTTAQPQTLKVYDYKGSGVAMAMYNTDESIEGFAHSSFKLAIDKKLNLFLSTKNTILKKYDGRFKDIFQEVYEAQYKSKFEQLGIHYEHRLIDDMVAQMIKSKGGFIMALKNYDGDVQSDIVAQGFGSLGLMTSILVTPDGKTFESEAAHGTVTRHYRKYQKGEETSTNSIASIFAWSRGLLKRGELDNTPALCKFANILESATLNTVQQDGIMTKDLALACGNNERSAYVTTEEFLDAVEKRLQKEIKSIE |
|  | binds | Protein HBT1 (protein, UniProt Q07653 1-1046) MNMNESISKDGQGEEEQNNFSFGGKPGSYDSNSDSAQRKKSFSTTKPTEYNLPKEQPESTSKNLETKAKNILLPWRKKHNKDSETPHEDTEADANRRANVTSDVNPVSADTKSSSGPNATITTHGYSYVKTTTPAATSEQSKVKTSPPTSHEHSNIKASPTAHRHSKGDAGHPSIATTHNHSTSKAATSPVTHTHGHSSATTSPVTHTHGHASVKTTSPTNTHEHSKANTGPSATATTHGHINVKTTHPVSHGHSGSSTGPKSTAAAQDHSSTKTNPSVTHGHTSVKDNSSATKGYSNTDSNSDRDVIPGSFRGMTGTDVNPVDPSVYTSTGPKSNVSSGMNAVDPSVYTDTSSKSADRRKYSGNTATGPPQDTIKEIAQNVKMDESEQTGLKNDQVSGSDAIQQQTMEPEPKAAVGTSGFVSQQPSYHDSNKNIQHPEKNKVDNKNISERAAEKFNIERDDILESADDYQQKNIKSKTDSNWGPIEYSSSAGKNKNLQDVVIPSSMKEKFDSGTSGSQNMPKAGTELGHMKYNDNGRDNLQYVAGSQAGSQNTNNNIDMSPRHEAEWSGLSNDATTRNNVVSPAMKDEDMNEDSTKPHQYGLDYLDDVEDYHENDIDDYSNAKKNDLYSKKAYQGKPSDYNYEQREKIPGTFEPDTLSKSVQKQDEDPLSPRQTTNRAGMETARDESLGNYEYSNTSGNKKLSDLSKNKSGPTPTRSNFIDQIEPRRAKTTQDIASDAKDFTNNPETGTTGNVDTTGRMGAKSKTFSSNPFDDSKNTDTHLENANVAAFDNSRSGDTTYSKSGDAETAAYDNIKNADPTYAKSQDITGMTHDQEPSSEQKASYGSGGNSQNQEYSSDDNIDVNKNAKVLEEDAPGYKREVDLKNKRRTDLGGADASNAYAAEVGNFPSLIDPHVPTYGFKDTNTSSSQKPSEGTYPETTSYSIHNETTSQGRKVSVGSMGSGKSKHHHNHHRHSRQNSSKGSDYDYNNSTHSAEHTPRHHQYGSDEGEQDYHDDEQGEEQAGKQSFMGRVRKSISGGTFGFRSEI |
| binds |  | Chromatin structure-remodeling complex subunit RSC9 (protein, UniProt Q03124 1-581) MNSLASNTPLNGTPVSEAPATSSEPVNMFETMVANPIKVSRLQSNGVLTGPAANTKSIHYSLANFNVFQSLPKETARGVDDLTRMEMALLSGIPEEIKWSLKKYLTYSNKAPYMISLRTLPDLLPLFKTFILPLERIVEGLNKSSICDSKAMDSLQMGLNALLILRNLAQDTDSVQILVKDREIKSFILFILKKFQCVATGDNKWQLYEGNATFFNELTHYTLDLMEAISSYIAPAMKDDHYFQTLVSILNYTKDRYMVISILRSLSRLLVRSKANEESAADNLDHKTLSLIVSFLLLECDSELIIASLDFLYQYILPGSQRITELFKSKECSLILEATLPNLLSYNIATPDYHLLQKHKIRLIKRLKPPAPKEPPNLSEDLFQQLFKLNEPLRSTAWLRCCFEPVQEAEFTQISLWRSYESKFGQPVRESGRKLLPAVEFIKNVSNAFNNAAAIVITDPVTGKKRFVIKGIQPRFKALGIADGERESQVPISALKSKFLNDSKEITPARQNSIPEVKFPQELSDVSKVACTFLCLLSNDTDDGAGSAFCQRIRPLVLHKLADIPPLTLALSEYMENTSGL |
|  | binds | Protein ZPS1 (protein, UniProt Q12512 21-249) APVTYDTNSTAELQSPSSQEILGWSHATFPTIYQTCNETNARMLNAAFKDTAEITAYGKDRLLNYGVDDVYYKRWFGNGSIFTVMGVFEQLMEASKGAMLMRCDDIDGLCAANPNYYAGHHRQSAPAETVICDYFYTSKKPLSTICFEGTIVDVGPKHYAGIDMLHRYLHVPTMSMDGYVGEYAETLEEVVDYTQNNATYAVRNTDNYLYYLADVYSASVIPGGCLGNL |
|  | binds | Cysteine desulfurase, mitochondrial (enzyme, UniProt P25374 37-497) PAAGVKLDDNFSLETHTDIQAAAKAQASARASASGTTPDAVVASGSTAMSHAYQENTGFGTRPIYLDMQATTPTDPRVLDTMLKFYTGLYGNPHSNTHSYGWETNTAVENARAHVAKMINADPKEIIFTSGATESNNMVLKGVPRFYKKTKKHIITTRTEHKCVLEAARAMMKEGFEVTFLNVDDQGLIDLKELEDAIRPDTCLVSVMAVNNEIGVIQPIKEIGAICRKNKIYFHTDAAQAYGKIHIDVNEMNIDLLSISSHKIYGPKGIGAIYVRRRPRVRLEPLLSGGGQERGLRSGTLAPPLVAGFGEAARLMKKEFDNDQAHIKRLSDKLVKGLLSAEHTTLNGSPDHRYPGCVNVSFAYVEGESLLMALRDIALSSGSACTSASLEPSYVLHALGKDDALAHSSIRFGIGRFSTEEEVDYVVKAVSDRVKFLRELSPLWEMVQEGIDLNSIKWSGH |
| binds |  | AMP deaminase (protein, UniProt P15274 1-810) MDNQATQRLNDLSLEPAPSHDEQDGSGLVIDIDQRKIGDEQAGVVVDDETPPLEQQDSHESLAADSRNANFSYHENQQLLENGTKQLALDEHDSHSAILEQPSHSTNCSSSNIAAMNKGHDSADHASQNSGGKPRTLSASAQHILPETLKSFAGAPVVNKQVRTSASYKMGMLADDASQQFLDDPSSELIDLYSKVAECRNLRAKYQTISVQNDDQNPKNKPGWVVYPPPPKPSYNSDTKTVVPVTNKPDAEVFDFTKCEIPGEDPDWEFTLNDDDSYVVHRSGKTDELIAQIPTLRDYYLDLEKMISISSDGPAKSFAYRRLQYLEARWNLYYLLNEYQETSVSKRNPHRDFYNVRKVDTHVHHSACMNQKHLLRFIKHKLRHSKDEKVIFRDGKLLTLDEVFRSLHLTGYDLSIDTLDMHAHKDTFHRFDKFNLKYNPIGESRLREIFLKTNNYIKGTYLADITKQVIFDLENSKYQNCEYRISVYGRSLDEWDKLASWVIDNKVISHNVRWLVQIPRLYDIYKKTGIVQSFQDICKNLFQPLFEVTKNPQSHPKLHVFLQRVIGFDSVDDESKVDRRFHRKYPKPSLWEAPQNPPYSYYLYYLYSNVASLNQWRAKRGFNTLVLRPHCGEAGDPEHLVSAYLLAHGISHGILLRKVPFVQYLYYLDQVGIAMSPLSNNALFLTYDKNPFPRYFKRGLNVSLSTDDPLQFSYTREPLIEEYSVAAQIYKLSNVDMCELARNSVLQSGWEAQIKKHWIGKDFDKSGVEGNDVVRTNVPDIRINYRYDTLSTELELVNHFANFKRTIEEK |
